The record followed here is paper PMC3807682.

The target in assay [1] is T1, MEF2 (endogenous Drosophila MEF2) (Drosophila (endogenous in whole adult flies)) (UniProt P40791).
T1 sequence: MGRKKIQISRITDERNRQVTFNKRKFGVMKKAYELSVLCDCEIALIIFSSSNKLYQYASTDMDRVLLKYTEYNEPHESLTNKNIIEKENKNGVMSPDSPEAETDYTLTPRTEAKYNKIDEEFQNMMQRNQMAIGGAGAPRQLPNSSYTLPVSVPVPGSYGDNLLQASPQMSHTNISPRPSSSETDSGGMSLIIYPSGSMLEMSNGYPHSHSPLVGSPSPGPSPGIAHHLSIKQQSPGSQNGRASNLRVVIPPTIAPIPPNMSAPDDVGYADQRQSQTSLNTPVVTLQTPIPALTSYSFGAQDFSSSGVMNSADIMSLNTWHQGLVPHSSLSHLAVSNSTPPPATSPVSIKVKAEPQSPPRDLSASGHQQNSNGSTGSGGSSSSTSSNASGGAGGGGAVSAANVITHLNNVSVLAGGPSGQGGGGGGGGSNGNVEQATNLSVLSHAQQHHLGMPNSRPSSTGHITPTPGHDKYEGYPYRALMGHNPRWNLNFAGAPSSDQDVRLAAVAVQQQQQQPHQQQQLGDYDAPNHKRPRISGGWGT
Description: co-IP; endogenous MEF2 precipitated with rabbit anti-MEF2 from whole-fly lysates (25 mM HEPES pH 7.6, 100 mM KCl, 1% NP-40), blot for TBP; flies 3 hr after E. cloacae infection; wild type and Dif; Rel double mutants.

For assay [2], the target named is T1, MEF2 (endogenous Drosophila MEF2) (Drosophila (endogenous in whole adult flies)). Description: co-IP; data not shown: endogenous MEF2 precipitated from whole-fly lysates of flies infected with a mixture of M. luteus and E. coli, TBP detected.

No constants are given. Whether binding was seen depends on the method and setting. In cells and extracts the contact can be indirect. Some entries that bind do so weakly or less than the wild type.

B1: TATA binding protein (TBP), endogenous Drosophila (protein, UniProt P20227 1-353)
chain: MDQMLSPNFSIPSIGTPLHQMEADQQIVANPVYHPPAVSQPDSLMPAPGSSSVQHQQQQQQSDASGGSGLFGHEPSLPLAHKQMQSYQPSASYQQQQQQQQLQSQAPGGGGSTPQSMMQPQTPQSMMAHMMPMSERSVGGSGAGGGGDALSNIHQTMGPSTPMTPATPGSADPGIVPQLQNIVSTVNLCCKLDLKKIALHARNAEYNPKRFAAVIMRIREPRTTALIFSSGKMVCTGAKSEDDSRLAARKYARIIQKLGFPAKFLDFKIQNMVGSCDVKFPIRLEGLVLTHCNFSSYEPELFPGLIYRMVRPRIVLLIFVSGKVVLTGAKVRQEIYDAFDKIFPILKKFKKQS
For B1, the binding entry in assay [1] and in assay [2] was “binds” in each case.
